Measured values from publication PMC9534967.

Amino acid sequences for entries named in this document (tags omitted). A change or cut given only in a name is not applied to a line headed by its entry.
UniProt O14727: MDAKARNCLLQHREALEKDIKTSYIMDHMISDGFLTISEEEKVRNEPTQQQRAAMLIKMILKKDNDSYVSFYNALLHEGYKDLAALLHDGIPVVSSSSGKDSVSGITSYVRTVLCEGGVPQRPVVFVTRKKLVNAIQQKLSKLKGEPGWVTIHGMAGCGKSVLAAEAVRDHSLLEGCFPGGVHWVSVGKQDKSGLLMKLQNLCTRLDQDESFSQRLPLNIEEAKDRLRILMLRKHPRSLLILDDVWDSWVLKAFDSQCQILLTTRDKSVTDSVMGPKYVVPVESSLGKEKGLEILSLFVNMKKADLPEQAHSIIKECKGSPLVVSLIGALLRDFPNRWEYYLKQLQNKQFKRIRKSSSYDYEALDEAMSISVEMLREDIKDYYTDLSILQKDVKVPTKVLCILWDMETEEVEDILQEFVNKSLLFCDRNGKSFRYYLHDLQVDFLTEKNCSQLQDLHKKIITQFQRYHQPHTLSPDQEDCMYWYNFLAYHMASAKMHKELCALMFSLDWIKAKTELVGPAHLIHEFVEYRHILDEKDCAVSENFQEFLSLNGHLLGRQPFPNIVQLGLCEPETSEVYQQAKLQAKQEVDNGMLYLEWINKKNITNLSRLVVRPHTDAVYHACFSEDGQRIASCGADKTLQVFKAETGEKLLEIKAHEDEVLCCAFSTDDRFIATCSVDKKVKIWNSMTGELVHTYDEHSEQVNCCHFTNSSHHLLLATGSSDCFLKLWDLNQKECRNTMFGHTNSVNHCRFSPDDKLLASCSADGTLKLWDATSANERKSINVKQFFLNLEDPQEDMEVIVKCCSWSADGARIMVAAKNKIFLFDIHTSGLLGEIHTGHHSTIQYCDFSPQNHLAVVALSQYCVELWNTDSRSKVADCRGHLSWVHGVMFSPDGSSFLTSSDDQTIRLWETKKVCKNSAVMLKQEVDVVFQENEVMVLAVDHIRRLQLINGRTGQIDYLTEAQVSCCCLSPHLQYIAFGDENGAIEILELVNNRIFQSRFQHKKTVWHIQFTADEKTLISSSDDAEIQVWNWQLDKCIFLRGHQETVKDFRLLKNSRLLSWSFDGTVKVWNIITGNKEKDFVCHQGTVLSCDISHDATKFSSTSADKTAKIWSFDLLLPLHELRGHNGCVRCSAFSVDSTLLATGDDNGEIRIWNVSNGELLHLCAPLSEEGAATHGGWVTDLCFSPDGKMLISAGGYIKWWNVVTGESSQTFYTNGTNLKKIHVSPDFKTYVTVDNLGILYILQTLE
UniProt P99999: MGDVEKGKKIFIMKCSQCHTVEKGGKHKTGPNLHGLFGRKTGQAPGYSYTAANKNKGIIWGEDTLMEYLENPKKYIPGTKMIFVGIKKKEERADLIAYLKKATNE

Target: His-tagged recombinant WD1/WD2 domain of APAF1 (UniProt O14727)
Experiment: pull-down; 2 µg His-tagged WD1/WD2 domain of APAF1 on Ni-NTA beads, with or without 1 or 2 µg ABL sense, anti-sense or mutant (∆APAF1) RNA at 4 °C for 1 h, then 2 µg GST-Cyt c at room temperature for 1 h; PBS washes; Western blot and coomassie staining; both purified

binding: binds
Substance: GST-tagged recombinant Cyt c (from UniProt P99999 1-105)

No constants are given. Whether binding was seen depends on the method and setting. Binding calls can cover weak binding; strength is not graded here.
